Source: patent US11397186B2, “Methods for covalently binding a cell surface protein and a ligand” (UNIVERSITEIT GENT, priority 2016, dated 2022)

Amino acid sequences for entries named in this document (tags omitted).
UniProt P35372, whole entry: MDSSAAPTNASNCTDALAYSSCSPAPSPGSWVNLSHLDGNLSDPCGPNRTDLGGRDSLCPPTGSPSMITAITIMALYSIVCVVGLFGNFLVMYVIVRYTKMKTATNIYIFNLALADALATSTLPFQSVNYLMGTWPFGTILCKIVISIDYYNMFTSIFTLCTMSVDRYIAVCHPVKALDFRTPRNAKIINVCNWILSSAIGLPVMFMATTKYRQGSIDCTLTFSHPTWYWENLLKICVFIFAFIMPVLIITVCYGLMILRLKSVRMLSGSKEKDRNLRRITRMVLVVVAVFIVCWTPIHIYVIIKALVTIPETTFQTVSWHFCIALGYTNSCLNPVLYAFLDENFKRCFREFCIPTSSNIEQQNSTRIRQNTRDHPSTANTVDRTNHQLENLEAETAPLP

Target: T1, μ-opioid receptor (MOR) (Homo sapiens, UniProt P35372)
T1 construct: expressed in transfected cells; host or cells: CHO-hOR cells (CHO cells expressing the human opioid receptor)
Test: Opioid receptor radio-ligand binding assay (CHO-hOR cells)
Procedure: Next, the synthesised peptides were subjected to biological activity testing, to know whether they still bind to the opioid receptor. If so, it is tested to which opioid receptor subtype they bind. It is also investigated whether the opioid peptides behave as agonist or antagonist. The following assays are performed: radio-ligand binding assay, ^35S GTP binding assay, and tissue experiments, including guinea pig ileum (GPI) and mouse vas deferens (MVD) tests.

N=C(N)NCCC[C@@H](NC(=O)[C@@H](N)Cc1ccc(O)cc1)C(=O)N[C@@H](Cc1ccccc1)C(=O)N[C@@H](Cc1ccccc1)C(N)=O [WTP, H—Y-r-F—F—NH2]
Ki: 8.04 ± 0.44 nM
